US4460605A, “2-[2'-Hydroxy-3'-(1,1-dimethylpropylamino)-propoxy ]-β-phenylpropiophenone, its physiologically acceptable acid addition salts, and pharmaceutical compositions” (Helopharm W. Petrik & Co., priority 1981, dated 1984)
Counter-ions that a name gives are not always drawn.

Assay: LD50 acute toxicity in dog
Details: in vivo, iv; dog i.v.

`CCCNCC(O)COc1ccccc1C(=O)CCc1ccccc1` (stereo not shown) [propafenone-HCl] showed an LD50 of 15 mg/kg.
